Assay: peptide made by a vendor (Fmoc solid-phase peptide synthesis; Fmoc-Amide-AMS resin; DIC/HOBt, NMM as base)
Details: whole synthesis, HPLC (Venusil XBP-C18 4.6x250 mm)

His-His-Ile-Tyr-Leu-Gly-Ala-Val-Asn-Tyr-Ile-Tyr-NHz
final HPLC purity (HCl salt): 97.0% | final purity (method not given) (TFA salt): >95% | crude purity (method not given) (TFA salt, converted to HCl salt): 46%

Reference: patent US12258425B2 (priority 2015, dated 2025)
